Measurements published in doi:10.1101/2020.02.19.956243.
Results are given in words; binding and its absence hold for the method and conditions named. In cells and extracts the contact can be indirect. For some assays here: Tags and fused reporters may be left off the sequences shown.

Protein sequences, listed by entry. Tags and fused reporters are not part of them. Lines headed by an entry give the natural chain unless they say otherwise; changes in a name come on top.
UniProt Q13547, whole entry, stated change not applied: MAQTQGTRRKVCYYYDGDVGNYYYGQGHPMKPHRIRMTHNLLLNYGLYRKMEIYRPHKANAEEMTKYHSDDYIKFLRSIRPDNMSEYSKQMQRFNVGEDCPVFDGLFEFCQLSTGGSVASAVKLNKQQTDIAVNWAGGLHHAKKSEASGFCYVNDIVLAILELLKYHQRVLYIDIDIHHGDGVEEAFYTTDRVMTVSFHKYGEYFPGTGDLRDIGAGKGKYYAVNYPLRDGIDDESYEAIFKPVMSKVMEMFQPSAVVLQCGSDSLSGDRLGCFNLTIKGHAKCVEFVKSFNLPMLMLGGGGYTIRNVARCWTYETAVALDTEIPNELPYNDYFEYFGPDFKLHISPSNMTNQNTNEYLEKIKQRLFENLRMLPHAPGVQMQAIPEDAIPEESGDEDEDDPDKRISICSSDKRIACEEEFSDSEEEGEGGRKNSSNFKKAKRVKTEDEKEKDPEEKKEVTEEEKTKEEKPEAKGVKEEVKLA

Key:
HA-tagged SIN3A = target: T1, HA-tagged SIN3A (UniProt Q96ST3); experiment: co-IP
T1 sequence: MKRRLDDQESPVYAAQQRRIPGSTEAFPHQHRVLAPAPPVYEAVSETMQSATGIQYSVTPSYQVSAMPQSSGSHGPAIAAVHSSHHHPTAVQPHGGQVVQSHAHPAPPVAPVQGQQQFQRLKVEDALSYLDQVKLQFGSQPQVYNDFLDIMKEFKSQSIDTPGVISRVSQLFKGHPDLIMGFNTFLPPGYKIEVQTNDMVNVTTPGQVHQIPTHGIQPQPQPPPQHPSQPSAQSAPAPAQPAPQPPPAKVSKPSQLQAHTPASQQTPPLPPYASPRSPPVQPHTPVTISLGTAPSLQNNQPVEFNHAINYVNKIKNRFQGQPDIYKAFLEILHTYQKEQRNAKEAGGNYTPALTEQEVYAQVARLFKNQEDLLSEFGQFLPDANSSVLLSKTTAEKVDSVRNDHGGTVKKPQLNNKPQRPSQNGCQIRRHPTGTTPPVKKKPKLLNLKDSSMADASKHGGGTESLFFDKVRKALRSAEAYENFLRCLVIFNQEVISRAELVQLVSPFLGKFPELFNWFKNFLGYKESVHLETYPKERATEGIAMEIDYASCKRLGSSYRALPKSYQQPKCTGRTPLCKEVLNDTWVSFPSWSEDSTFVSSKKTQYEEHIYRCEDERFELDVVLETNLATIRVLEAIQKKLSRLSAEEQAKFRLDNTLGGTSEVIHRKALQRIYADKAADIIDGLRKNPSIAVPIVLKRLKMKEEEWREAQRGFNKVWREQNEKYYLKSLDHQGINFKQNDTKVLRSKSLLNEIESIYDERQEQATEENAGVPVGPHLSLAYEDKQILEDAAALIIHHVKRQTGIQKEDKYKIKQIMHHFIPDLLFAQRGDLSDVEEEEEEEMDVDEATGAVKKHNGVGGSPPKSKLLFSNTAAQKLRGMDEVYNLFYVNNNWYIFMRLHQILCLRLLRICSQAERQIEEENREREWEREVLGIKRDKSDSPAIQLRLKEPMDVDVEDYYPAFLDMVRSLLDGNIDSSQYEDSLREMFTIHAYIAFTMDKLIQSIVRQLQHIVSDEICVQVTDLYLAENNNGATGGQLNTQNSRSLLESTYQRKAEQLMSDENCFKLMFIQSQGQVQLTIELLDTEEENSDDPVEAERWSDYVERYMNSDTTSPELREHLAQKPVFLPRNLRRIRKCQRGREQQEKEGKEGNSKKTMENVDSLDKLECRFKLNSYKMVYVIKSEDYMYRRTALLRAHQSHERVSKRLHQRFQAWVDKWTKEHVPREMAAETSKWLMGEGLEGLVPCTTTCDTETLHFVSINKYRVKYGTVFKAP

HA-tagged HDAC1 = HA-tagged HDAC1 (UniProt Q13547); experiment: co-IP

With “FLAG-tagged HoxA11 ΔAla internal deletion mutant (mouse) (from UniProt P31311)” the binding (HA-tagged SIN3A) was “no binding” and the binding (HA-tagged HDAC1) was “no binding”.
